Measurements: US20210024604A1 (Novo Nordisk A/S, priority 2009, published 2021)

Test: peptide synthesis
Conditions: lipidation step; for final HPLC purity: C8 column

Substance: B29N^ε-15-(4-Boronobenzenesulfonylamino)pentadecanoyl desB30 Human Insulin
- step yield: 21%
- final HPLC purity (acidic HPLC): 99.3%
- final HPLC purity (neutral HPLC): 99.5%
